This is one part of the list. These are further read-outs of the screen, such as a control signal, another cell line or another target. No call is given for them. Most of these compounds were active or inconclusive in the main read-out, so they are no random draw. The note in brackets gives the kind of curve behind each potency; many fits are weak.
Experiment: qHTS Assay to Find Inhibitors of Chronic Active B-Cell Receptor Signaling
Conditions: ABC-DLBCL IkBa-CBG/CBR reporter, luminescence ratio (green luciferase fused to IkBa over red control in TMD8 lymphoma cells), 4 h
Procedure, shortened: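 TMD8 human ABC-DLBCL cells with doxycycline-inducible IκBα–green luciferase fusion and unfused red luciferase, in 0.5% FBS medium; compounds up to 46 uM, 4 h at 37C. Green/red luminescence ratio, filter-overlap corrected, fitted to concentration-response curves.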

[1] = measured here: CBR red luminescence, cell number
[2] = measured here: IkBa-CBG green luminescence

Q: Which AC50 [1] does the source give for `O=C(CC1NCCc2ccccc21)Nc1ccc(Cl)cc1` (centres undefined) here?
A: 8.91 µM [falling, partial curve]

Q: Which AC50 [1] does the source give for `CSc1cccc(NC(=S)N(C(C)C)C(C)c2ccccn2)c1` (centres undefined) here?
A: 35.5 µM [rising, single point]

Q: For `COc1ccccc1Cn1c(=S)[nH]c2cc(C(=O)NCc3cccnc3)ccc2c1=O`, which AC50 [1] is on record?
A: 11.2 µM [falling, partial curve]

Q: For `COc1cc(OC)cc(-c2c(-c3cccs3)c3cc(-c4ccc(OC)c(F)c4)ccc3n2C)c1`, which AC50 [1] is on record?
A: 29.1 µM [rising, single point]

Q: Which AC50 [1] does the source give for `O=C(CSc1nc2scc(-c3ccccc3)c2c(=O)[nH]1)NCCc1ccccc1` here?
A: 35.5 µM [rising, single point]

Q: Which AC50 [1] does the source give for `CCN(CC)CCNC(=O)c1cc2c(=O)n(C)c3ccccc3c2n1C` here?
A: 29.1 µM [falling, single point]

Q: Which AC50 [1] does the source give for `N#Cc1nc(-c2ccccc2)oc1N1CCN(C(=O)c2ccco2)CC1` here?
A: 3.55 µM [rising, single point]

Q: For `COc1cc(OC)cc(C(=O)NNC(=O)c2ccc3ccccc3n2)c1`, which AC50 [1] is on record?
A: 8.2 µM [falling, partial curve, poor fit]

Q: With `O=C(COC(=O)CCS(=O)(=O)c1ccc(Cl)cc1)Nc1ncc(Cl)cc1Cl` as the compound, how does the AC50 [1] read?
A: 0.562 µM [falling, partial curve, poor fit]

Q: Which AC50 [1] does the source give for `CCOC(=O)CCCSc1nc2sc3c(c2c(=O)[nH]1)CCC3` here?
A: 0.461 µM [falling, full curve]

Q: With `COc1ccc(-c2nc(-c3ccc(Br)o3)no2)cc1OC` as the compound, how does the AC50 [1] read?
A: 2.91 µM [rising, single point]

Q: With `O=C(CSCc1ccco1)c1cccs1` as the compound, how does the AC50 [1] read?
A: 35.5 µM [rising, single point]

Q: For `COc1cccc(NC(=O)c2oc3ccccc3c2NC(=O)C2CC2)c1`, which AC50 [1] is on record?
A: 1.3 µM [falling, full curve, poor fit]

Q: And the AC50 [2]?
A: 4.61 µM [rising, full curve, poor fit]

Q: With `CCCCCCC(=O)Nc1ccc(Br)cn1` as the compound, how does the AC50 [1] read?
A: 2 µM [rising, full curve, poor fit]

Q: Which AC50 [1] does the source give for `Cc1cc(-n2c(C)cc(C(=O)CSc3ncnc4ccccc34)c2C)no1` here?
A: 35.5 µM [falling, single point]

Q: Which AC50 [1] does the source give for `COc1ccc(Br)cc1-c1noc(-c2ccccc2)n1` here?
A: 29.1 µM [falling, single point]

Q: What about the AC50 [2] of the same compound?
A: 32.6 µM [rising, partial curve, poor fit]

Q: For `CCN(CCNC(=O)C1CCN(Cc2nc(-c3cccc(Cl)c3)oc2C)CC1)c1ccccc1`, which AC50 [1] is on record?
A: 35.5 µM [falling, single point]

Q: With `O=C(CSc1ncccc1-c1nc2ccccc2[nH]1)N1CCCCC1` as the compound, how does the AC50 [1] read?
A: 1.12 µM [falling, full curve, poor fit]

Q: With `CCSS(=O)(=O)c1cccc2cccnc12` as the compound, how does the AC50 [2] read?
A: 20 µM [falling, partial curve, poor fit]

Q: Which AC50 [1] does the source give for `O=C(N/C=C/c1ccco1)OCc1ccccc1` here?
A: 0.1 µM [rising, full curve, poor fit]

Q: With `CCCSc1nnc2[nH]c(=O)cc(C)n12` as the compound, how does the AC50 [1] read?
A: 2.24 µM [rising, full curve, poor fit]

Q: For `CCCCCCCCNC(=O)c1cnsn1`, which AC50 [1] is on record?
A: 0.164 µM [rising, full curve, poor fit]

Q: For `C(=N\Nc1ncnc2ccccc12)/c1ccccc1`, which AC50 [1] is on record?
A: 10 µM [falling, partial curve]

Q: With `COc1c([N+](=O)[O-])c(=O)oc2ccccc12` as the compound, how does the AC50 [1] read?
A: 29.1 µM [falling, single point]

Q: For `CCOC(=O)c1ccc(N=c2sc(C(=O)OC)cc(=O)n2Cc2ccco2)cc1`, which AC50 [1] is on record?
A: 6.51 µM [falling, full curve]

Q: For `O=C1c2ccccc2C(=O)N1CCCc1nc2ccccc2c(=O)n1CCCn1ccnc1`, which AC50 [1] is on record?
A: 35.5 µM [rising, single point]

Q: For `O=C(CSc1nnc(-c2cccs2)n1-c1ccccc1)N1CCOCC1`, which AC50 [1] is on record?
A: 0.0731 µM [rising, full curve, poor fit]

Q: For `CC(=O)N1C(=O)c2cccc3cccc(c23)C(=O)N1C(C)=O`, which AC50 [1] is on record?
A: 4.61 µM [rising, full curve, poor fit]

Q: For `C=CCCCCCCCCC(=O)Nc1ncccn1`, which AC50 [1] is on record?
A: 3.55 µM [rising, partial curve, poor fit]

Q: For `COc1ccc(C(CNC(=O)CN(C)S(=O)(=O)c2ccc(C)cc2)N2CCCC2)cc1` (centres undefined), which AC50 [1] is on record?
A: 0.146 µM [rising, full curve, poor fit]

Q: For `O=C(c1cnc2n(c1=O)CCS2)N1CCN(c2ccccc2F)CC1`, which AC50 [1] is on record?
A: 6.51 µM [rising, full curve, poor fit]

Q: With `O=C(COC(=O)c1ccc(O)cc1O)N=c1sccn1Cc1ccccc1Cl` as the compound, how does the AC50 [1] read?
A: 29.1 µM [falling, single point]

Q: Which AC50 [1] does the source give for `O=C(N/N=C/c1cn(-c2cccs2)nc1-c1ccccc1)c1ccccc1Br` here?
A: 7.31 µM [falling, partial curve, poor fit]

Q: What about the AC50 [2] of the same compound?
A: 23.1 µM [rising, partial curve, poor fit]

Q: Which AC50 [1] does the source give for `CC1CCc2c(C(=O)Nc3ccc(OC(F)(F)F)cc3)csc2C1` (centres undefined) here?
A: 2.59 µM [rising, full curve]

Q: Which AC50 [1] does the source give for `CSc1nnc(-c2ccccc2N=Cc2c(C)[nH]n(-c3ccc4ccccc4c3)c2=O)c(=O)[nH]1` here?
A: 2.82 µM [falling, full curve, poor fit]

Q: For `CCCCN(CC)Cc1ccc(CNC(=S)Nc2c(C)cc(C)cc2C)o1`, which AC50 [1] is on record?
A: 6.31 µM [falling, full curve]

Q: Which AC50 [1] does the source give for `O=C(O)C1CC=CCC1C(=O)NC12CC3CC(CC(C3)C1)C2` (centres undefined) here?
A: 29.1 µM [falling, single point]

Q: For `O=[N+]([O-])c1ccc(NCCCNS(=O)(=O)c2ccc(Cl)cc2)c(Cl)c1`, which AC50 [1] is on record?
A: 10 µM [falling, partial curve]

Q: For `O=C(O)c1ccc2cccnc2c1O`, which AC50 [1] is on record?
A: 0.708 µM [falling, full curve]

Q: Which AC50 [1] does the source give for `O=C(NC1CCCC1)c1cc(-c2ccc(Cl)cc2)on1` here?
A: 4.47 µM [falling, full curve, poor fit]

Q: With `CCn1cnc2c(Nc3cccc(Cl)c3)nc(C#N)nc21` as the compound, how does the AC50 [1] read?
A: 25.9 µM [rising, single point]

Q: With `COc1ccc(OC(=O)Cc2cccc3ccccc23)cc1` as the compound, how does the AC50 [1] read?
A: 12.6 µM [rising, partial curve]

Q: Which AC50 [1] does the source give for `O=C(N/N=C/c1ccc([N+](=O)[O-])o1)C1CCCC1` here?
A: 4.47 µM [falling, partial curve, poor fit]

Q: With `O=C(O)CCCCCN1C(=O)/C(=C/c2ccncc2)SC1=S` as the compound, how does the AC50 [1] read?
A: 0.146 µM [falling, full curve]

Q: Which AC50 [1] does the source give for `O=C(CSc1nc(O)c(Cc2ccccc2)c(=O)[nH]1)Nc1ccccc1` here?
A: 0.82 µM [falling, full curve, poor fit]

Q: For `COc1ccc(Cl)cc1NC(=O)CNc1ccc(F)cc1C`, which AC50 [1] is on record?
A: 18.4 µM [falling, partial curve]

Q: With `O=C(Nc1cccc(C(F)(F)F)c1)c1cc(-c2ccc(F)cc2)on1` as the compound, how does the AC50 [1] read?
A: 32.6 µM [falling, single point]

Q: With `CC1CCCCN1C(=O)C1CCN(c2nc(-c3ccccc3)nc3c2CCC3)CC1` (centres undefined) as the compound, how does the AC50 [1] read?
A: 11.2 µM [falling, partial curve, poor fit]

Q: With `Cc1ccccc1NC(=S)NNC(=O)c1ccncc1` as the compound, how does the AC50 [1] read?
A: 22.4 µM [falling, partial curve, poor fit]

Q: For `Cc1ccc2oc(=O)c(/C=C(\O)c3ccccc3)nc2c1`, which AC50 [1] is on record?
A: 1.12 µM [falling, full curve, poor fit]

Q: With `O=C(NC(=S)Nc1nc2ccc(F)cc2s1)c1ccco1` as the compound, how does the AC50 [1] read?
A: 2.24 µM [falling, full curve, poor fit]

Q: For `CCC(O)c1cc2c(cc1NC(=O)c1cccs1)OCCO2` (centres undefined), which AC50 [1] is on record?
A: 0.411 µM [rising, partial curve, poor fit]

Q: With `CC(OC(=O)c1ccc2ncsc2c1)C(=O)Nc1ncc(Cl)cc1Cl` (centres undefined) as the compound, how does the AC50 [1] read?
A: 0.326 µM [falling, full curve, poor fit]

Q: Which AC50 [1] does the source give for `Cc1cc(C)c2oc(C(=O)N3CCN(C)CC3)cc(=O)c2c1` here?
A: 14.1 µM [rising, single point]

Q: With `Cc1cc(Br)c(NC(=O)CCl)c(Br)c1` as the compound, how does the AC50 [1] read?
A: 20.6 µM [falling, single point]

Q: Which AC50 [1] does the source give for `Oc1ccc(/C=N/NC(=S)Nc2cccnc2)cc1` here?
A: 10 µM [falling, partial curve, poor fit]

Q: Which AC50 [1] does the source give for `Nc1nc2ccccc2n1C(=O)c1ccccc1` here?
A: 1.41 µM [falling, full curve]

Q: For `CC(C)(C)c1cc(=O)n(-c2ccccc2)[nH]1`, which AC50 [1] is on record?
A: 23.1 µM [falling, single point]

Q: Which AC50 [1] does the source give for `O=C(Nc1ccc2c(c1)OCO2)c1noc2c1CCCC2` here?
A: 8.91 µM [falling, partial curve, poor fit]

Q: Which AC50 [1] does the source give for `CC(C)Cn1c(=O)c2ccccc2n2c(SCC(=O)N3c4ccccc4CC3C)nnc12` (centres undefined) here?
A: 18.4 µM [rising, single point]

Q: With `CCn1cc(C(=O)NCCCN2CCCC(C)C2)c(=O)c2cc(S(=O)(=O)N(C)C3CCCCC3)ccc21` (centres undefined) as the compound, how does the AC50 [1] read?
A: 35.5 µM [rising, single point]

Q: With `CCOC(=O)/C(C(N)=NCC(C)C)=C(/O)c1ccccc1` as the compound, how does the AC50 [1] read?
A: 6.31 µM [rising, single point]

Q: With `Fc1ccc(N2CCN(C3=Nc4cccc5cccc3c45)CC2)cc1` as the compound, how does the AC50 [1] read?
A: 6.31 µM [rising, single point]

Q: Which AC50 [1] does the source give for `COc1ccc(-c2cn[nH]c2C)cc1` here?
A: 11.2 µM [falling, single point]

Q: For `CC1=NN(C(N)=S)C(=O)C1N=Nc1cccc(Cl)c1C` (centres undefined), which AC50 [1] is on record?
A: 0.501 µM [rising, full curve]

Q: Which AC50 [1] does the source give for `C=CCn1c(SCC(=O)c2ccc(O)c(O)c2)nnc1-c1cccnc1` here?
A: 15.8 µM [falling, partial curve, poor fit]

From PubChem BioAssay AID493014 (National Center for Advancing Translational Sciences (NCATS), 2011)
